Source: PubChem BioAssay AID2417 (National Center for Advancing Translational Sciences (NCATS), 2010)
Out of some 140,000 compounds screened, about 4,300 (3.1%) were called active. Inconclusive results, whose numbers are uncertain, are shown with a selection of clear calls.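 Rule for the calls: active = readout at or below -70, meaning at least 70% loss of cells showing the perinucleolar compartment, a nuclear body marking cancer cells; inconclusive = readout between -30 and a set limit; inactive = the rest.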

Assay: High Content Assay for Compounds that inhibit the Assembly of the Perinucleolar Compartment;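 note: plate controls were DMSO wells for no effect and camptothecin positive control wells for full effect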
Settings: PC3M PTB-GFP, PNC prevalence imaging, 16 h; at 10 µM; hits give low values
Method in brief: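 PC3M cells stably expressing PTB-GFP, 750–1000 cells/well, treated 16 h at 37 °C with compound (23 nl of library stock), in duplicate. After paraformaldehyde fixation and Hoechst stain, imaged at 20x; PNC prevalence scored by image analysis.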

| SMILES | activity change (PNC), negative = inhibition |
| --- | --- |
| O=C(NC1CCCCC1)c1ccc(CNc2ccccc2)o1 | inactive: -25.7% |
| Cc1cccc(-n2nnnc2SCc2csc(-c3ccccc3)n2)c1 | inactive: 41% |
| COc1ccc(NC(=O)COc2ccc(C(=O)NC3CCCc4ccccc43)cc2OC)cc1 (stereo unspecified) | inconclusive: -50.1% |
| CCn1c(=N)n(CC(=O)c2cccc(OC)c2)c2ccccc21 | active: -117% |
| CC1CCN(C(=O)C2CCN(S(=O)(=O)c3cnc[nH]3)CC2)CC1 | inconclusive: -43.5% |
| Cc1ccccc1Nc1nnc(SCc2cc([N+](=O)[O-])cc3c2OCOC3)s1 | inactive: 33.5% |
| Cc1ccc(/C=N/N=C/c2ccc(C)s2)s1 | inconclusive: -34.4% |
| CC(=O)Oc1ccc2c(=O)c(Oc3ccccc3[N+](=O)[O-])coc2c1 | inconclusive: -41.9% |
| COc1cc(/C=N/NC(=O)c2cccnc2)ccc1OCC(=O)Nc1c(C)cc(C)cc1C | inactive: 7.7% |
| COc1cccc(C(=O)NCCSc2ccc(C)cc2)c1 | inconclusive: -42.2% |
| CCC(CC)C(=O)NCCc1cc2ccc(C)c(C)c2[nH]c1=O | inconclusive: -38.8% |
| COC(=O)c1cc(C(=O)OC)cc(N2C(=O)CC(NNC(=O)c3ccc(C)cc3)C2=O)c1 (stereo unspecified) | inactive: 137% |
| Cc1ccccc1NC(=O)C(=O)NC(C)CCc1ccccc1 (stereo unspecified) | inconclusive: -75.4% |
| O=C(COC(=O)COc1ccc(Nc2ccccc2)cc1)NCc1ccco1 | inconclusive: -31.5% |
| O=C(NCc1cccs1)c1cnc2ccccn2c1=O | inconclusive: -31.2% |
| COCCn1c(-c2ccccc2)nc2c(c(=O)c3ccccc3n2C)c1=O | inactive: 38% |
| COc1ccc(C2c3sc(=O)[nH]c3SC3C4CCC(C4)C23)cc1 (stereo unspecified) | inactive: -29.7% |
| COc1cc2c(cc1OC)CN(CC(=O)Nc1ccccc1C#N)CC2 | inconclusive: -49.3% |
| O=C(CN(Cc1ccccc1C(F)(F)F)C(=O)CNC(=O)c1ccco1)NC1CCCC1 | inconclusive: -36.1% |
| COc1ccc(C2SCCN2C(=S)Nc2cccc(C(F)(F)F)c2)cc1 (stereo unspecified) | active: -82.3% |
| CCC(C)NC(=O)CCNS(=O)(=O)c1ccc(Br)cc1 (stereo unspecified) | active: -89.6% |
| COC1=CC(=O)OC12CCCCC2 | inactive: -23.7% |
| N#CCCSc1nc(N2CCOCC2)c2c(c1C#N)CCCC2 | inconclusive: -37.7% |

Filtered by structure: those above containing a nitro group on carbon (two)

| SMILES | activity change (PNC), negative = inhibition |
| --- | --- |
| Cc1ccccc1Nc1nnc(SCc2cc([N+](=O)[O-])cc3c2OCOC3)s1 | inactive: 33.5% |
| CC(=O)Oc1ccc2c(=O)c(Oc3ccccc3[N+](=O)[O-])coc2c1 | inconclusive: -41.9% |

Given bar-delimited: part of the list above.
SMILES | activity change (PNC), negative = inhibition
O=C(NC1CCCCC1)c1ccc(CNc2ccccc2)o1 | inactive: -25.7%
COc1cc2c(cc1OC)CN(CC(=O)Nc1ccccc1C#N)CC2 | inconclusive: -49.3%

(more compounds)

| SMILES | activity change (PNC), negative = inhibition |
| --- | --- |
| CC(=O)N1CCC(O)(c2cccc(C(F)(F)F)c2)CC1 | inconclusive: -45.9% |
| COc1cc(NC(=O)C2CCCO2)c(OC)cc1Cl (stereo unspecified) | inconclusive: -37.2% |
| CC(C)CC(NC(=O)c1ccco1)C(=O)Nc1ccc2c(c1)OCCO2 (stereo unspecified) | inconclusive: -57.2% |
| CC(Sc1nc(-c2ccccc2)cc(C(F)(F)F)n1)C(=O)N1CCCCC1 (stereo unspecified) | inactive: 64.2% |
| O=C1Nc2ccc(Cl)cc2C12Nc1ccccc1-c1nnc(SCc3ccccc3F)nc1O2 (stereo unspecified) | inconclusive: -36.3% |
| COc1ccc(NC(=O)Cn2cc(C(=O)c3ccco3)c3ccccc32)cc1 | inconclusive: -36.4% |
| Cc1ccc(C)c(NC(=O)CN(C)C(=O)[C@@H](NC(=O)c2ccc(C(C)(C)C)cc2)C(C)C)c1 | active: -98.4% |
| COCC(C)NC(=O)c1cc(-c2ccc(OC)c(OC)c2)on1 (stereo unspecified) | active: -83.1% |
| C=C(C)c1nc2cc(OC)c(OC)cc2c(=O)o1 | inconclusive: -30.8% |
| O=S(=O)(Cc1ccccc1)Nn1cnnc1 | inconclusive: -32.7% |
| COc1ccccc1OCC(=O)N/N=C1\CCc2ccccc21 | inconclusive: -40% |
| O=S1(=O)C=C(SCCN2CCCCC2)c2ccccc21 | inconclusive: -47.7% |
| C=CCN(c1ccc(C(=O)NC(C)C)cc1)S(C)(=O)=O | inconclusive: -49.7% |
| COc1cc(OC)c(C(=O)CCCN2CCCC2)c(OC)c1 | inactive: -21.7% |
| CCOc1cc(CN2CCN(c3cccc(C(F)(F)F)c3)CC2)ccc1O | inactive: 17.6% |
| O=C(COC(=O)c1ccc([N+](=O)[O-])s1)Nc1ccc(Cl)cn1 | inconclusive: -33.4% |
| O=C1NC(c2ccccc2)(C(F)(F)F)C(=O)N1Cc1cccnc1 (stereo unspecified) | active: -84.6% |
| CCNc1nc(NC(C)(C)C)nc(N(C#N)CC)n1 | inconclusive: -32.7% |
| Cn1c(CC2C(=O)Nc3ccc(Br)cc32)nc2ccccc2c1=O (stereo unspecified) | inconclusive: -34.3% |
| C=CCN1C(=O)C(O)(CC(=O)c2ccc(N)cc2)c2ccccc21 (stereo unspecified) | inactive: 8.97% |
| Cc1ccccc1NC(=O)c1onc2c1CCCC2 | inconclusive: -37.3% |
| CC(NC(=O)/C=C/c1cnc2ccccc2n1)C12CC3CC(CC(C3)C1)C2 (stereo unspecified) | inactive: 11.4% |
| C=CCn1c(C)cc(C(=O)CSc2nc3ccccc3c(=O)[nH]2)c1C | inactive: 23.8% |

Among those listed so far, these contain a thiophene ring, fused or not:

| SMILES | activity change (PNC), negative = inhibition |
| --- | --- |
| Cc1ccc(/C=N/N=C/c2ccc(C)s2)s1 | inconclusive: -34.4% |
| O=C(NCc1cccs1)c1cnc2ccccn2c1=O | inconclusive: -31.2% |
| O=C(COC(=O)c1ccc([N+](=O)[O-])s1)Nc1ccc(Cl)cn1 | inconclusive: -33.4% |

Continuation:

| SMILES | activity change (PNC), negative = inhibition |
| --- | --- |
| O=C(COc1ccccc1Cl)N1CCN(c2ccc([N+](=O)[O-])c(N3CCOCC3)c2)CC1 | inconclusive: -48.2% |
| N#Cc1cc(C(=O)c2cc(F)ccc2O)cn(-c2nccs2)c1=O | inactive: -5.42% |
| O=C(Nc1cccnc1)c1cccs1 | active: -100% |
| COc1ccc(N2C(=O)C3ON(C4SC(=S)N(C)C4(C)C)C(c4ccc(Cl)cc4)C3C2=O)cc1 (stereo unspecified) | inconclusive: -61.6% |
| CCOC(=O)c1ccc2nc(NC(=O)c3ccco3)sc2c1 | inconclusive: -30.1% |
| COc1ccc(-c2csc(NC(=O)c3ccc(OCC(=O)N4CCOCC4)c(OC)c3)n2)cc1 | inconclusive: -43.5% |
| COc1ccc(CCNC(=O)Cc2cc(=O)[nH]c(=O)[nH]2)cc1OC | inactive: 62.1% |
| Cc1ccnc(SCCn2c(N3CCN(c4ccccc4)CC3)nc3c2c(=O)[nH]c(=O)n3C)n1 | inconclusive: -36.5% |
| O=C1c2ccccc2S(=O)(=O)N1CC(O)COc1ccc(Br)cc1 (stereo unspecified) | active: -106% |
| CCN(CC)c1ccc(/C=N/NC(=O)OC)c(O)c1 | inconclusive: -67.2% |
| COc1cc(Cl)c(C)cc1NC(=O)CSc1nc2ccccc2o1 | inconclusive: -50.8% |
| C/C(CCc1ccco1)=N/NC(=O)CCC(=O)Nc1ccc(Br)cc1 | inconclusive: -45.9% |
| Cc1ccc(NC(=O)COC(=O)c2ccnn2C)cc1 | inconclusive: -40% |
| Cc1ccc(C(=O)/C=C/Nc2ccc([N+](=O)[O-])cc2Br)cc1 | inconclusive: -43.3% |
| N#Cc1cnc2ncnn2c1-c1ccccc1 | inactive: -11.6% |
| O=c1c2c(C(F)(F)F)cc(C(F)(F)F)nc2[nH]n1-c1ccccc1 | inconclusive: -33.9% |
| Cc1nn(-c2ccc(Cl)cc2)c2sc(C(=O)c3c(N)n(C)c(=O)n(C)c3=O)cc12 | inactive: -27.3% |
| CCOc1cc(NC(=O)c2ccco2)c(OCC)cc1NC(=O)CCC(=O)NCc1cccnc1 | inconclusive: -39.1% |
| CC(=O)Nc1ccccc1/C=C/c1ccc2c(C)cc(C)c(O)c2n1 | inconclusive: -31% |
| CCOc1ccc(OCC)c(NC(=O)C2CCN(S(=O)(=O)c3cccnc3)CC2)c1 | inconclusive: -65.5% |
| COc1ccccc1-c1nc2n(n1)C(c1ccc(Cl)cc1)C(C(N)=O)=C(C)N2 (stereo unspecified) | inconclusive: -37.1% |
| CCOCCCn1c(SCC(=O)/C(C#N)=C(\C)N)nc2ccccc2c1=O | inconclusive: -57.7% |
| C=CCC(NCc1ccco1)c1ccc(OC)cc1OC (stereo unspecified) | inactive: 38.9% |

| SMILES | activity change (PNC), negative = inhibition |
| --- | --- |
| COc1ccc(N2CCCCn3c2nc2c3c(=O)n(C)c(=O)n2C)cc1 | inconclusive: -55% |
| Cc1ccsc1/C=C1\SC(N2CC(C)OC(C)C2)=NC1=O (stereo unspecified) | inactive: 18.3% |
| Cc1ccc(NC(=O)NC(=O)CN2C(=O)NC3(CCCCCCC3)C2=O)c(C)c1 | inconclusive: -65.8% |
| O=C(COC(=O)c1cccs1)NCc1ccc2c(c1)OCO2 | inconclusive: -56.1% |
| COCCNC(=O)CN(C(=O)CCC(=O)Nc1ccccn1)c1ccc(F)cc1 | inconclusive: -37.7% |
| Cc1cc2ccccc2c(=O)n1CC(=O)Nc1ccc2c(c1)OCCO2 | inactive: 32.7% |
| Cc1ccc(C)c2[nH]c(=O)c(CN(CCN3CCOCC3)Cc3nnnn3CC3CCCO3)cc12 (stereo unspecified) | inactive: 3.03% |
| COc1ccccc1Nc1nc(C)cc(=O)[nH]1 | inconclusive: -32.1% |
| C/C(=N\O)c1ccc2c3c([nH]c2c1)CCCC3 | inconclusive: -40.8% |
| CCOP(=O)(OCC)c1nc(-c2cccc3ccccc23)oc1N1CCOCC1 | inconclusive: -45.4% |
| COc1cc(/C=N/O)c(Br)cc1OCC(=O)Nc1ccccc1C | active: -84.3% |
| CNC(=O)OCc1cccc(COC(=O)NC)n1 | inconclusive: -46% |
| CCCCn1c(C(C)NC(=O)CC)nc2ccccc21 (stereo unspecified) | inconclusive: -38.8% |
| CCOC(=O)CNC(=O)CNC(=O)Cn1ccc2ccccc2c1=O | inconclusive: -34% |
| Nc1nc(SCc2ccccc2Cl)[nH]c(=O)c1-c1ccccc1 | inconclusive: -36% |
| Cc1ccc(C(=O)COC(=O)C2CC(=O)N(c3nc(-c4ccccc4)cs3)C2)cc1C (stereo unspecified) | inconclusive: -58.8% |
| CCN1C(=O)/C(=C\c2cccn2-c2ccc([N+](=O)[O-])cc2)N(CC)C1=S | inconclusive: -49.3% |
| COC(=O)c1sccc1NC(=O)C1CC2CCC1C2 (stereo unspecified) | inconclusive: -37.6% |
| CCCCC1OC23CCCCC2C(C#N)(C#N)C1(C#N)C(=N)O3 (stereo unspecified) | inconclusive: -51.1% |
| COc1ccc(-c2nnc(SCc3nnc(-c4ccccc4)o3)n2C)cc1OC | inconclusive: -37.8% |
| O=C(NC(=Nc1nc2ccccc2o1)NC(=O)c1ccccc1)c1ccccc1 | inconclusive: -46.2% |
| CCCSc1nnc2n(C)c(=O)c3c4c(sc3n12)CCC4 | inconclusive: -41.8% |
